Data: the supplement of paper PMC12067093, “Discovery and optimisation of a covalent ligand for TRIM25 and its application to targeted protein ubiquitination” (Chemical Science, 2025)
This is one part of the list.

Compound: Cc1cc(ccc1-c1ccccc1)C(=O)N1CCCN(CC1)C(=O)CCl [compound 10]
Assay: probe-labelled cysteine peptide fold change vs DMSO (competition) (log2 fold change); higher = less target engagement (more negative = stronger competition)
Settings: THP-1, incubation time: 4 h
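Further: competitive profiling in live THP-1 cells: cysteine peptides tagged with an iodoacetamide desthiobiotin (IA-DTB) probe, intensity after compound treatment relative to DMSO-treated cells.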

| Target | probe-labelled cysteine peptide fold change (10 µM) | probe-labelled cysteine peptide fold change (50 µM) |
| --- | --- | --- |
| FOXK1_P85037_439_SGGLQTPECLSR (UniProt P85037) | -0.394 | -0.726 |
| FNDC3A_Q9Y2H6_762_CDITTAPGPPDQCKPPQVTCR (UniProt Q9Y2H6) | 0.0405 | 0.0336 |
| FLNB_O75369_1876_DGTCTVTYLPTLPGDYSILVK (UniProt O75369) | 0.159 | 0.0655 |
| FXR1_P51114_129+141_CTVDVPEDLREACANENAHK (UniProt P51114) | -0.000958 | -0.0928 |
| FKBP5_Q13451_107_KGEICHLLCKPEYAYGSAGSLPK (UniProt Q13451) | 0.00615 | -0.583 |
| FN3KRP_Q9HA64_11_RELGCSSVR (UniProt Q9HA64) | 0.0934 | 0.342 |
| FSCN1_Q16658_260_VGKDELFALEQSCAQVVLQAANER (UniProt Q16658) | -0.0958 | 0.0402 |
| FKBP3_Q00688_133_KGDVVHCWYTGTLQDGTVFDTNIQTSAK (UniProt Q00688) | 0.106 | -0.0529 |
| FUT8_Q9BYC5_266_YATGGWETVFRPVSETCTDR (UniProt Q9BYC5) | 0.295 | 0.323 |
| FKBP15_Q5T1M5_1031_DGSLPPELSCIPSHR (UniProt Q5T1M5) | -0.301 | -0.0969 |
| FN1_P02751_470_FGFCPMAAHEEICTTNEGVMYR (UniProt P02751) | -0.00116 | -0.399 |
| FPGT_O14772_424_CSVAPGSVVEYSR (UniProt O14772) | -0.085 | -0.172 |
| GABPB1_Q06547_331_QCIEIIENR (UniProt Q06547) | -0.297 | -0.0145 |
| FLNB_O75369_1081_GAGTGGLGLTVEGPCEAK (UniProt O75369) | -0.0839 | 0.0226 |
| FRY_Q5TBA9_2009_IQACTQQGLSSK (UniProt Q5TBA9) | -0.419 | -0.465 |
| FIG4_Q92562_839_NSQQPCSR (UniProt Q92562) | -0.0261 | -0.31 |
| FYCO1_Q9BQS8_848_AHVQELLQCSER (UniProt Q9BQS8) | -0.0898 | -0.154 |
| G6PD_P11413_385_LQFHDVAGDIFHQQCKR (UniProt P11413) | -0.0125 | -0.683 |
| FKBP5_Q13451_394_LQISMCQK (UniProt Q13451) | -0.0827 | -0.272 |
| FTO_Q9C0B1_171_ANEDAVPLCMSADFPR (UniProt Q9C0B1) | -0.249 | -0.328 |
| FMNL3_Q8IVF7_469_CHLEPNVR (UniProt Q8IVF7) | 0.0936 | -0.184 |

An excerpt of these results, with bars between the fields.
Target | probe-labelled cysteine peptide fold change (10 µM) | probe-labelled cysteine peptide fold change (50 µM)
FYCO1_Q9BQS8_848_AHVQELLQCSER (UniProt Q9BQS8) | -0.0898 | -0.154
G6PD_P11413_385_LQFHDVAGDIFHQQCKR (UniProt P11413) | -0.0125 | -0.683
FKBP5_Q13451_394_LQISMCQK (UniProt Q13451) | -0.0827 | -0.272
FTO_Q9C0B1_171_ANEDAVPLCMSADFPR (UniProt Q9C0B1) | -0.249 | -0.328
FMNL3_Q8IVF7_469_CHLEPNVR (UniProt Q8IVF7) | 0.0936 | -0.184

The results go on:

| Target | probe-labelled cysteine peptide fold change (10 µM) | probe-labelled cysteine peptide fold change (50 µM) |
| --- | --- | --- |
| FKBP4_Q02790_328_LASHLNLAMCHLK (UniProt Q02790) | 0.0898 | 0.132 |
| FTH1_P02794_131_NDPHLCDFIETHYLNEQVK (UniProt P02794) | 0.709 | 0.714 |
| G6PD_P11413_13_TQVCGILR (UniProt P11413) | 0.112 | 0.00731 |
| FN1_P02751_461_FGFCPMAAHEEICTTNEGVMYR (UniProt P02751) | -0.0464 | -0.0929 |
| FLNB_O75369_455_SPFVVQVGEACNPNACR (UniProt O75369) | 0.0157 | -0.0746 |
| FKBP5_Q13451_215_EEQCILYLGPR (UniProt Q13451) | -0.119 | -0.143 |
| GABPB1_Q06547-3_355_SLLPGVLCR (UniProt Q06547) | 0.135 | -0.515 |
| GABPB1_Q06547_331_QCIEIIENRVESAEIEER (UniProt Q06547) | -0.455 | -0.214 |
| FTO_Q9C0B1_472_TLPADQKPECRPYWEK (UniProt Q9C0B1) | -0.435 | -0.236 |
| FOXP1_Q9H334_317_WPGCEAVCEDFQSFLK (UniProt Q9H334) | -0.0195 | 0.436 |
| FTSJ3_Q8IY81_294_ASEIMVDDEELAQHPATTEDIRVCCQDIR (UniProt Q8IY81) | -0.0124 | -0.136 |
| FRA10AC1_Q70Z53_240_DCEESSHKK (UniProt Q70Z53) | -0.0608 | -0.359 |
| FLII_Q13045_119_NSGVPDDIFKLDDLSVLDLSHNQLTECPR (UniProt Q13045) | -0.0155 | -0.0136 |
| FKBP8_Q14318_227_ECGNAHYQR (UniProt Q14318) | 0.121 | -0.0275 |
| FLII_Q13045_982_EGEEATAEAEEKQPEEDFQCIVYFWQGR (UniProt Q13045) | 0.194 | 0.216 |
| FYCO1_Q9BQS8_709+719_EGECQQLREEVEQCQQLAEAR (UniProt Q9BQS8) | -0.174 | -0.546 |
| FTH1_P02794_91+103_KPDCDDWESGLNAMECALHLEK (UniProt P02794) | 0.507 | 0.227 |
| FKBP1A_P62942_23_GQTCVVHYTGMLEDGK (UniProt P62942) | 0.148 | -0.0201 |
| FKBP8_Q14318_227_KRECGNAHYQR (UniProt Q14318) | 0.125 | -0.201 |
| FN3KRP_Q9HA64_11_ELGCSSVR (UniProt Q9HA64) | -0.0443 | 0.412 |
| FKRP_Q9H9S5_191_CDALDGDAVVLLR (UniProt Q9H9S5) | -0.321 | -0.0492 |

| Target | probe-labelled cysteine peptide fold change (10 µM) | probe-labelled cysteine peptide fold change (50 µM) |
| --- | --- | --- |
| FSCN1_Q16658_61_KQIWTLEQPPDEAGSAAVCLR (UniProt Q16658) | -0.0697 | -0.547 |
| GAB2_Q9UQC2_237_LAQGNGHCVNGISGQVHGFYSLPK (UniProt Q9UQC2) | -0.151 | -0.33 |
| FNBP4_Q8N3X1_603_GWSCHWDR (UniProt Q8N3X1) | 0.208 | 0.657 |
| FLAD1_Q8NFF5_338_LTLDSEEEGPLEECLAYLTAR (UniProt Q8NFF5) | -0.0485 | 0.177 |
| FRY_Q5TBA9_1809_AFGPLWCHEDITPK (UniProt Q5TBA9) | -0.157 | -0.149 |
| FSCN1_Q16658_121_LSCFAQTVSPAEK (UniProt Q16658) | 0.146 | 0.227 |
| GAK_O14976_691_YDLDACDIQEK (UniProt O14976) | -0.0675 | -0.262 |
| FUBP3_Q96I24_125_IQIASESSGIPERPCVLTGTPESIEQAKR (UniProt Q96I24) | 0.363 | -0.248 |
| FTSJ1_Q9UET6_238_IIVPFVTCGDLSSYDSDR (UniProt Q9UET6) | -0.00709 | 0.281 |
| FYCO1_Q9BQS8_928_ERVEEALACAVQELQDAK (UniProt Q9BQS8) | 0.104 | 0.173 |
| FXR2_P51116_151_EACSNENVHK (UniProt P51116) | 0.178 | 0.443 |
| FUCA2_Q9BTY2_294_WENCMTIDK (UniProt Q9BTY2) | -0.00646 | 0.0599 |
| FLII_Q13045_46_TGLCYLPEELAALQK (UniProt Q13045) | 0.0972 | 0.0734 |
| FLNB_O75369_1617_CLATGPGIASTVK (UniProt O75369) | 0.0409 | 0.231 |
| GALK2_Q01415_349_ICEEAPENMVQLLGELMNQSHMSCR (UniProt Q01415) | 0.442 | 0.0659 |
| FNBP4_Q8N3X1_673_TGTDSNSTESSETSTGSLCK (UniProt Q8N3X1) | -0.132 | -0.451 |
| FUBP3_Q96I24_366_CGLVIGK (UniProt Q96I24) | 0.0932 | -0.113 |
| FKBPL_Q9UIM3_275_TVLHANLAACQLLLGQPQLAAQSCDR (UniProt Q9UIM3) | 0.45 | 0.459 |
| FHL1_Q13642_150+153_GEDFYCVTCHETK (UniProt Q13642) | -0.0207 | -0.408 |
| FKBP4_Q02790_396_TQLAVCQQR (UniProt Q02790) | 0.214 | 0.0543 |
| FLCN_Q8NFG4_215_VFEAEQFGCPQR (UniProt Q8NFG4) | -0.0204 | -0.54 |

| Target | probe-labelled cysteine peptide fold change (10 µM) | probe-labelled cysteine peptide fold change (50 µM) |
| --- | --- | --- |
| FUS_P35637_433_CPNPTCENMNFSWR (UniProt P35637) | 0.134 | 0.15 |
| FLII_Q13045_1257+1265_CFHAWSAFCK (UniProt Q13045) | -0.0916 | -0.374 |
| FLNB_O75369_769_ANEPTHFTVDCTEAGEGDVSVGIK (UniProt O75369) | -0.0149 | 0.114 |
| FHOD1_Q9Y613_43_APTCSLDGALPLGAQIPAVHR (UniProt Q9Y613) | -0.105 | 0.425 |
| FLNB_O75369_416_CVYKPMQPGPHVVK (UniProt O75369) | 0.0164 | -0.502 |
| G6PC3_Q9BUM1_269_DSGAALGLGIALHSPCYAQVR (UniProt Q9BUM1) | -0.15 | -0.581 |
| FUBP1_Q96AE4_332_CQHAAEIITDLLR (UniProt Q96AE4) | 0.0726 | -0.0146 |
| FHL1_Q13642_43_FCANTCVECR (UniProt Q13642) | 0.103 | -0.023 |
| FOXM1_Q08050_56_EVAESNSCK (UniProt Q08050) | -0.129 | -0.806 |
| FXR2_P51116_151_VTMAVPEDLREACSNENVHK (UniProt P51116) | 0.1 | -0.177 |
| FOCAD_Q5VW36_1559_CLLEMTDDDANR (UniProt Q5VW36) | 0.125 | 0.407 |
| FLNB_O75369_2556_AGSNMLLIGVHGPTTPCEEVSMK (UniProt O75369) | -0.0862 | 0.0907 |
| FHL2_Q14192_7_FDCHHCNESLFGK (UniProt Q14192) | 0.161 | 0.103 |
| GABPA_Q06546_388_YYYDGDMICK (UniProt Q06546) | -0.0643 | -0.0421 |
| FHOD1_Q9Y613_936_LTHFLDQCAR (UniProt Q9Y613) | 0.00046 | 0.212 |
| GALK1_P51570_351_MTGGGFGGCTVTLLEASAAPHAMR (UniProt P51570) | 0.164 | 0.0867 |
| FLNB_O75369_991_KVVPCLVTPVTGR (UniProt O75369) | -0.046 | -0.106 |
| FXR1_P51114_129_CTVDVPEDLREACANENAHK (UniProt P51114) | -0.0546 | -0.163 |
